Assay results as given in PubChem BioAssay AID2685 (National Center for Advancing Translational Sciences (NCATS), 2010).
The other results are listed elsewhere or left out. Shown are side measurements of this screen, not its main read-out; they come without a call. The list favours compounds with an active or inconclusive main result. Potencies come from curve fits of mixed quality, noted in brackets.

Experiment: qHTS Assay for Lipid Storage Modulators in Drosophila S3 Cells;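 on cell number change: cells counted by Cell Tracker Red CMTPX staining in the red channel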
Details: BODIPY lipid droplet fluorescence, 18-24 h; for cell number change: measured here: cell count max response, cells fed with added oleic acid
Method in brief: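 Drosophila S3 cells loaded with oleic acid (400 uM, as added) and compounds at several concentrations; lipid droplets imaged by 488-nm laser-scanning cytometry, 500–530 nm intensity and object ratio to cell channel. Percent activity normalized to 20 uM Triacsin C.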

[1] = measured here: cell number channel AC50, cells fed with added oleic acid
[2] = measured here: lipid fluorescence (Fed channel) AC50, cells fed with added oleic acid

Structure (SMILES)	cell number change	AC50 [1]	AC50 [2]
CSC1=NCCCN1C(=O)c1c(-c2ccccc2Cl)noc1C	-60.1%	6.51 µM [falling, full curve]	6.51 µM [falling, full curve]
CC(C)N(C(=O)COC(=O)Cn1cnc2ccccc21)c1ccccc1	4%	–	–
COC(=O)CSc1nnc(CSc2nc(C)cc(C)n2)n1Cc1ccco1	-84.1%	29.1 µM [falling, single point]	–
CCN(CC(=O)NCc1ccco1)S(=O)(=O)c1ccc(F)cc1	1.26%	–	–
O=[N+]([O-])c1cccc(N(CC(O)CN2CCCCC2)S(=O)(=O)c2ccccc2)c1 (centres undefined)	21.4%	–	3.66 µM [falling, single point]
COC(=O)Nc1cc(C)nc2ccccc12	1.97%	–	29.1 µM [rising, single point]
COc1ccc(C(=O)O)cc1S(=O)(=O)Nc1ccccc1C(=O)NCc1ccc2c(c1)OCO2	6.12%	–	0.92 µM [falling, full curve]
Cc1onc(-c2ccccc2Cl)c1C(=O)Nc1cccnc1	–	–	0.291 µM [falling, partial curve, poor fit]
O=C(NN=C1C2CC3CC(C2)CC1C3)c1cccc(S(=O)(=O)N2CCOCC2)c1	–	0.146 µM [rising, full curve, poor fit]	0.13 µM [rising, full curve, poor fit]
OCc1n[nH]c(CO)n1	-1.79%	–	29.1 µM [falling, single point]
O=C(Nc1ccccc1)C1CCCN1C(=O)Nc1ccccc1[N+](=O)[O-] (centres undefined)	-29.7%	–	0.82 µM [falling, partial curve]
O=C(NC1CCN(C(=O)N2c3ccccc3Sc3ccccc32)CC1)c1ccco1	-33%	23.1 µM [falling, single point]	13 µM [falling, partial curve]
CN(C)c1ccc(/C=C/c2c([N+](=O)[O-])c(=O)n(C)c(=O)n2C)cc1	231%	29.1 µM [rising, single point]	0.0731 µM [rising, full curve, poor fit]
Oc1ccc2ccccc2c1Br	-67.3%	20.6 µM [falling, single point]	–
CCOC(=O)C1=C(C)NC(=O)NC1c1ccsc1 (centres undefined)	-16.5%	–	3.66 µM [rising, single point]
O=C(Nc1ccccc1)c1cccc(C(=O)Nc2ccccc2)n1	41.7%	32.6 µM [rising, single point]	4.11 µM [falling, single point]
Cc1nc(N2CCN(c3ccccc3)CC2)[nH]c(=O)c1Cc1ccccc1	-13%	–	2.91 µM [falling, full curve, poor fit]
COc1ccc(/C=C2\SC(=O)N(CC(=O)Nc3ccc(O)cc3)C2=O)cc1OC	-8.38%	–	11.6 µM [rising, partial curve, poor fit]
Cn1nnnc1SCC(=O)NCC(=O)c1ccccc1	-12.7%	–	5.8 µM [falling, single point]
O=C1c2ccccc2C(=O)N1CCCCSc1nc2ccccc2o1	–	1.84 µM [rising, partial curve]	1.64 µM [rising, partial curve]
Cc1ccc(NC(=O)c2ccccn2)cc1S(=O)(=O)N1CCOCC1	-20.6%	–	0.58 µM [falling, single point]

Another view of some results above.
O=[N+]([O-])c1cccc(N(CC(O)CN2CCCCC2)S(=O)(=O)c2ccccc2)c1 (centres undefined)
  cell number change: 21.4%; AC50 [2]: 3.66 µM [falling, single point]
COC(=O)Nc1cc(C)nc2ccccc12
  cell number change: 1.97%; AC50 [2]: 29.1 µM [rising, single point]
COc1ccc(C(=O)O)cc1S(=O)(=O)Nc1ccccc1C(=O)NCc1ccc2c(c1)OCO2
  cell number change: 6.12%; AC50 [2]: 0.92 µM [falling, full curve]

The list continues:

Structure (SMILES)	cell number change	AC50 [1]	AC50 [2]
CC1CCc2c(sc3nc(CN4CCN(S(=O)(=O)c5ccccc5[N+](=O)[O-])CC4)[nH]c(=O)c23)C1 (centres undefined)	-9.69%	–	14.6 µM [falling, single point]
CCC1OC(c2ccc([N+](=O)[O-])cc2)=Nc2ccccc21 (centres undefined)	-3.67%	–	20.6 µM [rising, partial curve]
CCOc1ccc(Cn2c3ccc(OC)cc3c3nc4ccccc4nc32)cc1OC	48.1%	29.1 µM [rising, single point]	4.61 µM [falling, full curve, poor fit]
N#Cc1c(-c2ccccc2)nc(SCc2ccc([N+](=O)[O-])cc2)[nH]c1=O	22.3%	–	0.82 µM [rising, full curve, poor fit]
O=C(NCCCn1ccnc1)C1CC2CCC1C2 (centres undefined)	–	–	0.731 µM [falling, full curve, poor fit]
CSc1ccc(/C=N/NC(=O)CNc2cccc3ccccc23)cc1	-41.8%	7.31 µM [falling, partial curve]	8.2 µM [falling, partial curve]
CCCC(=O)Nc1ccc2c(c1)nc(CN1CCCC1)n2C	–	–	29.1 µM [falling, single point]
CC1CCCC(N2CCN(C(=O)c3cccc(F)c3)CC2)C1 (centres undefined)	19.1%	–	29.1 µM [rising, single point]
CCOc1ccc(C(=O)Nc2cnn(Cc3ccc(Cl)c(Cl)c3)c2)cc1	2.3%	–	18.4 µM [falling, single point]
O=C(Nc1nc2ccccc2s1)c1cnccn1	1.84%	6.51 µM [falling, single point]	6.51 µM [falling, single point]
COc1ccc(N2CC(C(=O)N3CCCC(C)C3)CC2=O)cc1 (centres undefined)	-2.76%	–	29.1 µM [rising, single point]
COc1ccc(NC(=O)CCS(=O)(=O)c2ccc3c(c2)CCCN3C(C)=O)cc1Cl	–	3.26 µM [rising, partial curve]	–
CCN(CC)CCNC(=O)CS(=O)Cc1nc(-c2ccccc2Cl)oc1C (centres undefined)	5.06%	–	6.51 µM [falling, single point]
Cc1ccc(NC(=O)CN2C(=O)N/C(=C/c3cc(C)n(-c4cccc(C(=O)O)c4)c3C)C2=O)cc1	23.1%	–	0.092 µM [rising, full curve]
CCNC(=O)NC(=O)C(C)OC(=O)c1oc2ccc(OCC)cc2c1C (centres undefined)	-0.517%	–	0.58 µM [rising, single point]
CC(OC(=O)COc1ccc(Nc2ccccc2)cc1)C(=O)N(C)c1ccccc1 (centres undefined)	-15.7%	–	–
CC(=O)c1cccc(NC(=O)NC(C)c2ccncc2)c1 (centres undefined)	-25.9%	–	–
COc1ccc(N2CCN(C(=O)CSc3nnc4ncccn34)CC2)cc1	-21.7%	–	–
COc1cccc(/C(O)=C2\C(=O)C(=O)N(c3ccccn3)C2c2ccccc2OC)c1 (centres undefined)	4.04%	–	–
Fc1c(F)c(F)c(/C=N/NC(=S)Nc2cccnc2)c(F)c1F	44.6%	9.2 µM [rising, partial curve, poor fit]	–
CC1CN(CCCCOc2ccc(Cl)c3ccccc23)CC(C)O1 (centres undefined)	-46.6%	8.2 µM [falling, partial curve, poor fit]	–

Structure (SMILES)	cell number change	AC50 [1]	AC50 [2]
Cc1noc(/C=C/c2ccco2)c1S(=O)(=O)N1CCC(C(=O)NC(C)c2ccccc2)CC1 (centres undefined)	-5.83%	–	1.16 µM [falling, single point]
O=C(CSc1nc2ccccc2c(=O)n1Cc1ccco1)Nc1cccc(O)c1	5.56%	–	–
Cc1nc2scc(C)n2c(=O)c1S(=O)(=O)NCCc1ccccc1	-18.6%	–	–
CCC(C)NC(=O)c1cn(CCOC)c(=O)c2c1c1ccccc1n2C (centres undefined)	25%	–	4.61 µM [rising, single point]
O=C(Nc1cccc(O)c1)C1CC(c2c(F)cccc2Cl)=NO1 (centres undefined)	16.4%	–	–
COc1ccc(C2=CC(=O)C[C@H](c3ccc(Cl)cc3)C2)cc1	4.92%	–	–
Cc1ccc(C(=O)c2cn(Cc3ccc(Cl)cc3)c3nc(C)ccc3c2=O)cc1	33.5%	23.1 µM [rising, single point]	23.1 µM [rising, partial curve, poor fit]
CCOc1ccc(/C=C/[N+](=O)[O-])c2ccccc12	-46.7%	23.1 µM [falling, single point]	14.6 µM [falling, partial curve]
O=C(c1cncc(Br)c1)N1CCN(S(=O)(=O)c2ccccc2)CC1	15.3%	–	6.51 µM [falling, single point]
CCN(Cc1ccccc1)C(=O)C1CCN(Cc2ccc(OC)c(OC)c2OC)CC1	4.86%	–	–
COc1cc(-c2nnc(SCc3cc(=O)oc4cc(O)c(O)cc34)o2)cc(OC)c1OC	16.6%	–	0.00517 µM [rising, full curve, poor fit]
O=C(CSc1nnc(-c2ccccc2)o1)Nn1cnnc1	1.89%	–	29.1 µM [falling, single point]
CCCCCc1cc(=O)oc2c(C(CCN3CCN(c4ccccc4)CC3)c3ccc4c(c3)OCO4)c(OC)cc(OC)c12 (centres undefined)	5.52%	–	0.651 µM [rising, full curve, poor fit]
Cc1cc(C)c2cc(CN(Cc3nnnn3C3CCCCC3)CC3CCCO3)c(=O)[nH]c2c1 (centres undefined)	-13.7%	–	1.64 µM [rising, partial curve]
O=C1CN(c2nc(-c3cccnc3)nc3scc(-c4ccccc4)c23)CCN1	–	–	6.51 µM [rising, partial curve, poor fit]
COc1ccc(-n2c(N3CCN(C)CC3)nc3sc4c(c3c2=O)CCCCC4)cc1	-1.52%	–	6.51 µM [falling, single point]
COc1ccc(Cl)cc1NC(=O)C1CSC(c2ccncc2)=N1 (centres undefined)	13.3%	–	6.51 µM [rising, single point]
CC1(C)NC(=O)N(CCOc2cccc(Cl)c2Cl)C1=O	6.81%	–	–
CN(C)S(=O)(=O)c1cccc(NC(=S)N/N=C/C(c2ccccc2)c2ccccc2)c1	12.3%	–	18.4 µM [rising, single point]
